From publication PMC11358005
No constants are given. Whether binding was seen depends on the method and setting. In cells and extracts the contact can be indirect. Some entries that bind do so weakly or less than the wild type. Tags and fused reporters may be left off the sequences shown. One block for each molecule: values may come before it.

Amino acid sequences for entries named in this document (tags omitted). Residues count along the entry.
UniProt P06213, residues 28-1382: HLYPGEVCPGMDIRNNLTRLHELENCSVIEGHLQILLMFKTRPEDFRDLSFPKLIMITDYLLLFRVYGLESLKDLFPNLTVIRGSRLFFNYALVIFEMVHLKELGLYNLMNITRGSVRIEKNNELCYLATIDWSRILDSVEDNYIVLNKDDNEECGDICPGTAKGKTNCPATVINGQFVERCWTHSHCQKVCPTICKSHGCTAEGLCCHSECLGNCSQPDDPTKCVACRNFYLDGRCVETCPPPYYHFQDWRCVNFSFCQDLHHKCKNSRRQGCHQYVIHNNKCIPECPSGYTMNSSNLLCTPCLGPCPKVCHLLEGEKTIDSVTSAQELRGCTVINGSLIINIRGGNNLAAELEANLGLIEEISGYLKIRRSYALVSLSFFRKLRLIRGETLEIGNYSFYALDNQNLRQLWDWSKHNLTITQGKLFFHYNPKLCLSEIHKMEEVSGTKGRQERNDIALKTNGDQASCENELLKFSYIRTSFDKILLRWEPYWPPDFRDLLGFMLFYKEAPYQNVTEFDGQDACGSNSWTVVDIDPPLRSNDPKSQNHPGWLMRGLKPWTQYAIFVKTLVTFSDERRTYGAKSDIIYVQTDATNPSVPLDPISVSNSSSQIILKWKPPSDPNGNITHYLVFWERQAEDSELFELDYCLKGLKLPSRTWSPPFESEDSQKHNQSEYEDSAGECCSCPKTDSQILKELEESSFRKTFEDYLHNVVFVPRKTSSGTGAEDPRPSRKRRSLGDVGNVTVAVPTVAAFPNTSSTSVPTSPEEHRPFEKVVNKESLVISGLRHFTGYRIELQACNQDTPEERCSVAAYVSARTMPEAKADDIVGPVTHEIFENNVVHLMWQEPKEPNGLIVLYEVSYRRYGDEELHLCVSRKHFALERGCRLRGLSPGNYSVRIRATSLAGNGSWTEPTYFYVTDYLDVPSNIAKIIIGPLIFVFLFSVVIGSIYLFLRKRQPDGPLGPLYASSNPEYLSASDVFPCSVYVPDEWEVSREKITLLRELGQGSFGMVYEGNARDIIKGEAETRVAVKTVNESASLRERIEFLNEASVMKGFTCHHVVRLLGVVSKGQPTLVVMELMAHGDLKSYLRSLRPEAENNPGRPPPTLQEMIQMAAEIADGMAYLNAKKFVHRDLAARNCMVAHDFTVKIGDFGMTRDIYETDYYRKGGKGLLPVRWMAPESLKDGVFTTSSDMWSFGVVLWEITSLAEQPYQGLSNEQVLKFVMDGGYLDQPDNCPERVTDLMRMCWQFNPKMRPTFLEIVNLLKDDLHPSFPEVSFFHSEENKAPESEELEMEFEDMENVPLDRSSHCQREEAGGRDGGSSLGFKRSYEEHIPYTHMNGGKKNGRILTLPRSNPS
UniProt P35568: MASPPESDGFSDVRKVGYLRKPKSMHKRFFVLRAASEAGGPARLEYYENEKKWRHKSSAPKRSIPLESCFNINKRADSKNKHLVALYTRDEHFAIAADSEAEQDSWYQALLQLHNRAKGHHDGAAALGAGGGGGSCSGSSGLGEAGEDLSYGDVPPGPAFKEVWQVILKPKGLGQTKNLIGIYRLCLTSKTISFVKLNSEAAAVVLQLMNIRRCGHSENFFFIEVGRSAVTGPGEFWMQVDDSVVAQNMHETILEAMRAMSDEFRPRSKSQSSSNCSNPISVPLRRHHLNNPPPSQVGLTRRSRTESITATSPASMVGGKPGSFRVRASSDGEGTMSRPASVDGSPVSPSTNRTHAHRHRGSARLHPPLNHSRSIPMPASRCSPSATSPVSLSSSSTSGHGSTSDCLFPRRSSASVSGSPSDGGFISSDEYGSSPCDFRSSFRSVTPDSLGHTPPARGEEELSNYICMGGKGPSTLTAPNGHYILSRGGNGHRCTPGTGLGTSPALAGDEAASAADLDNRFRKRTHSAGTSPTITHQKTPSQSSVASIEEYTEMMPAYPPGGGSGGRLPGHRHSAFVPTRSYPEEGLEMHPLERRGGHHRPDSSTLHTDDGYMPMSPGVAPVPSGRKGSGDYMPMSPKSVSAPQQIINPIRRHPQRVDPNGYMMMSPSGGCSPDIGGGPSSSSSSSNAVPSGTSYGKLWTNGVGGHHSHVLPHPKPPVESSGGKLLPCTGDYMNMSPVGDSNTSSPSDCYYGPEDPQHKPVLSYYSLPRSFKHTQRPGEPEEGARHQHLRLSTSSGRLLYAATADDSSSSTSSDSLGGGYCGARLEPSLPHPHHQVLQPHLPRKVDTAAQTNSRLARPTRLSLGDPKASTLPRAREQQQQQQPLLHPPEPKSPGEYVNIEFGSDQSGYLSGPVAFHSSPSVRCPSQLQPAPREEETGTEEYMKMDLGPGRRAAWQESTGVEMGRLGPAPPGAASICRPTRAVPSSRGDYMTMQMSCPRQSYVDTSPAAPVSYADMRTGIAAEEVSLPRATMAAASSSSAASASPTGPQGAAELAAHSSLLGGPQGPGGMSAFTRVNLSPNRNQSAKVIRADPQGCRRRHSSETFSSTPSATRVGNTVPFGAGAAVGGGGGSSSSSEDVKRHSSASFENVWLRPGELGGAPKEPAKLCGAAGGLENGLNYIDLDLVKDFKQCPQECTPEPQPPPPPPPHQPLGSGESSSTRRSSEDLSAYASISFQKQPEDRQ

Columns and labels:
[1] = biological target: T1, histidine-tagged WT IGFBP7 (Ad-WT IGFBP7-6xHis) (human) (UniProt Q16270); assay: co-IP; AC16 cells infected with 6xHis-tagged IGFBP7 adenovirus (WT or deletion forms) for 48 hours, lysed in pulldown buffer; His-tagged IGFBP7 held on Dynabeads (His-Tag Isolation & Pulldown; 'anti-6xHis Dynabeads'), eluted with His-Elution Buffer, immunoblot
T1 sequence: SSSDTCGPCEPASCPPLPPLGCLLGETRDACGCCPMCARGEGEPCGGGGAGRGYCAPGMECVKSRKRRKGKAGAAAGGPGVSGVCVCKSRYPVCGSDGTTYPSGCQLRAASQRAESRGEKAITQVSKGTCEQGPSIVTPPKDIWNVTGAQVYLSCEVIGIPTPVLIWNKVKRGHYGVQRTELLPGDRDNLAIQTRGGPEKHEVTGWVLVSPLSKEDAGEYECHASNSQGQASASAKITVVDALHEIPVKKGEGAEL

[2] = biological target: insulin receptor (IR) (human (endogenous in AC16)) (UniProt P06213); assay: co-IP; reverse IP: IR precipitated from lysate of Ad-hIGFBP-6xHis-infected AC16 cells with INSR mAb (18-44) and Dynabeads Protein G, immunoblot

- binding [1]: binds
Molecule: insulin receptor (IR) (from UniProt P06213 28-1382)

- binding [1]: binds
Molecule: insulin receptor substrate IRS1 (from UniProt P35568 1-1242)

- binding [2]: binds
B1: histidine-tagged WT IGFBP7 (Ad-WT IGFBP7-6xHis) (protein, UniProt Q16270-1 27-282)
chain: T1 sequence

- binding [1]: binds
B2: insulin receptor substrate IRS2 (protein, UniProt Q9Y4H2 1-1338)
chain: MASPPRHGPPGPASGDGPNLNNNNNNNNHSVRKCGYLRKQKHGHKRFFVLRGPGAGGDEATAGGGSAPQPPRLEYYESEKKWRSKAGAPKRVIALDCCLNINKRADAKHKYLIALYTKDEYFAVAAENEQEQEGWYRALTDLVSEGRAAAGDAPPAAAPAASCSASLPGALGGSAGAAGAEDSYGLVAPATAAYREVWQVNLKPKGLGQSKNLTGVYRLCLSARTIGFVKLNCEQPSVTLQLMNIRRCGHSDSFFFIEVGRSAVTGPGELWMQADDSVVAQNIHETILEAMKALKELFEFRPRSKSQSSGSSATHPISVPGARRHHHLVNLPPSQTGLVRRSRTDSLAATPPAAKCSSCRVRTASEGDGGAAAGAAAAGARPVSVAGSPLSPGPVRAPLSRSHTLSGGCGGRGSKVALLPAGGALQHSRSMSMPVAHSPPAATSPGSLSSSSGHGSGSYPPPPGPHPPLPHPLHHGPGQRPSSGSASASGSPSDPGFMSLDEYGSSPGDLRAFCSHRSNTPESIAETPPARDGGGGGEFYGYMTMDRPLSHCGRSYRRVSGDAAQDLDRGLRKRTYSLTTPARQRPVPQPSSASLDEYTLMRATFSGSAGRLCPSCPASSPKVAYHPYPEDYGDIEIGSHRSSSSNLGADDGYMPMTPGAALAGSGSGSCRSDDYMPMSPASVSAPKQILQPRAAAAAAAAVPSAGPAGPAPTSAAGRTFPASGGGYKASSPAESSPEDSGYMRMWCGSKLSMEHADGKLLPNGDYLNVSPSDAVTTGTPPDFFSAALHPGGEPLRGVPGCCYSSLPRSYKAPYTCGGDSDQYVLMSSPVGRILEEERLEPQATPGPSQAASAFGAGPTQPPHPVVPSPVRPSGGRPEGFLGQRGRAVRPTRLSLEGLPSLPSMHEYPLPPEPKSPGEYINIDFGEPGARLSPPAPPLLASAASSSSLLSASSPASSLGSGTPGTSSDSRQRSPLSDYMNLDFSSPKSPKPGAPSGHPVGSLDGLLSPEASSPYPPLPPRPSASPSSSLQPPPPPPAPGELYRLPPASAVATAQGPGAASSLSSDTGDNGDYTEMAFGVAATPPQPIAAPPKPEAARVASPTSGVKRLSLMEQVSGVEAFLQASQPPDPHRGAKVIRADPQGGRRRHSSETFSSTTTVTPVSPSFAHNPKRHNSASVENVSLRKSSEGGVGVGPGGGDEPPTSPRQLQPAPPLAPQGRPWTPGQPGGLVGCPGSGGSPMRRETSAGFQNGLNYIAIDVREEPGLPPQPQPPPPPLPQPGDKSSWGRTRSLGGLISAVGVGSTGGGCGGPGPGALPPANTYASIDFLSHHLKEATIVKE
